Reference: publication PMC5674077
No constants are given. Whether binding was seen depends on the method and setting. In cells and extracts the contact can be indirect. Some binding calls cover weakened binding; strength is not graded here. Where a sequence is shown, tags or fusion partners need not be part of it. Each block holds one binder with its values, some of them ahead of it.

Sequences of proteins named here, by UniProt entry; tags and fusion partners are left off.
UniProt Q04206: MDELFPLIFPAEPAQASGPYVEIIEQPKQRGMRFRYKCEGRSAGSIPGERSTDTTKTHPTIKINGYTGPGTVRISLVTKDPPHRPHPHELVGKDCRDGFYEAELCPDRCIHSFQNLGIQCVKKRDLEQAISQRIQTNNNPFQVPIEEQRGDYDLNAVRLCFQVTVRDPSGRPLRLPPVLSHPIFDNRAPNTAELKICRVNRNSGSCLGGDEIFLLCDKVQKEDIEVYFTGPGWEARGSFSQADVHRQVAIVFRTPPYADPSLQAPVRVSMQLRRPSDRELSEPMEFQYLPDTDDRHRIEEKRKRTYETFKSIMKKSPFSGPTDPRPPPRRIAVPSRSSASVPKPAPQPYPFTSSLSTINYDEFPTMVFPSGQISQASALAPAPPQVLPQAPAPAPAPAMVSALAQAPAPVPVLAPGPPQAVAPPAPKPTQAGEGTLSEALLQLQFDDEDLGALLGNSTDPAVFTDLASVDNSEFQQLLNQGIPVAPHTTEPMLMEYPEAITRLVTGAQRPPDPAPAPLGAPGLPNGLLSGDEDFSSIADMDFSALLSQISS

Legend:
[1] = target: HA-p65, Q04206; assay: co-IP; two-step co-IP; HEK293T co-transfected with HA-p65, FLAG-NMI and Myc-IκBα; first IP anti-FLAG, elution with FLAG peptide in lysis buffer with 250 mM NaCl, second IP anti-HA in lysis buffer with 300 mM NaCl; 4 °C; conditions: remark: other sources report otherwise
[2] = target: T1, NMI (HA- or Myc-tagged, transfected HeLa cells, Fig. 4D-H) (human) (UniProt Q13287); assay: co-IP; HeLa cells transfected with the indicated plasmids; immunoprecipitated with anti-Myc Ab, immunoblotted with anti-HA Ab
T1 sequence: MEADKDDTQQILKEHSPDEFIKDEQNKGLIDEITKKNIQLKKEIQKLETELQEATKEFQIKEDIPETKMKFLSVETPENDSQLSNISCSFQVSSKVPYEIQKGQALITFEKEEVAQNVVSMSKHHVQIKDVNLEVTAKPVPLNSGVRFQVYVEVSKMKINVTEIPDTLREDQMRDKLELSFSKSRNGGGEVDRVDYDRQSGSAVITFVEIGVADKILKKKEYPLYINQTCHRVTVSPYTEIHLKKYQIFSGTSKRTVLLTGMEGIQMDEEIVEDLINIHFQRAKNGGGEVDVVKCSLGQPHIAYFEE

[3] = target: Myc-p65 (UniProt Q04206); assay: co-IP; 293T cells transfected with Myc-p65 and FLAG-NMI, lysed 24 h after transfection; immunoprecipitated with anti-FLAG or anti-Myc Abs, immunoblotted with anti-Myc or anti-FLAG Abs

- binding [1]: binds
B1: Myc-IκBα, P25963 1-317 (protein)
chain: MFQAAERPQEWAMEGPRDGLKKERLLDDRHDSGLDSMKDEEYEQMVKELQEIRLEPQEVPRGSEPWKQQLTEDGDSFLHLAIIHEEKALTMEVIRQVKGDLAFLNFQNNLQQTPLHLAVITNQPEIAEALLGAGCDPELRDFRGNTPLHLACEQGCLASVGVLTQSCTTPHLHSILKATNYNGHTCLHLASIHGYLGIVELLVSLGADVNAQEPCNGRTALHLAVDLQNPDLVSLLLKCGADVNRVTYQGYSPYQLTWGRPSTRIQQQLGQLTLENLQMLPESEDEESYDTESEFTEFTEDELPYDDCVFGGQRLTL

- binding [2]: binds
B2: p100/52 (protein, UniProt Q00653-1 1-900)
chain: MESCYNPGLDGIIEYDDFKLNSSIVEPKEPAPETADGPYLVIVEQPKQRGFRFRYGCEGPSHGGLPGASSEKGRKTYPTVKICNYEGPAKIEVDLVTHSDPPRAHAHSLVGKQCSELGICAVSVGPKDMTAQFNNLGVLHVTKKNMMGTMIQKLQRQRLRSRPQGLTEAEQRELEQEAKELKKVMDLSIVRLRFSAFLRASDGSFSLPLKPVISQPIHDSKSPGASNLKISRMDKTAGSVRGGDEVYLLCDKVQKDDIEVRFYEDDENGWQAFGDFSPTDVHKQYAIVFRTPPYHKMKIERPVTVFLQLKRKRGGDVSDSKQFTYYPLVEDKEEVQRKRRKALPTFSQPFGGGSHMGGGSGGAAGGYGGAGGGGSLGFFPSSLAYSPYQSGAGPMGCYPGGGGGAQMAATVPSRDSGEEAAEPSAPSRTPQCEPQAPEMLQRAREYNARLFGLAQRSARALLDYGVTADARALLAGQRHLLTAQDENGDTPLHLAIIHGQTSVIEQIVYVIHHAQDLGVVNLTNHLHQTPLHLAVITGQTSVVSFLLRVGADPALLDRHGDSAMHLALRAGAGAPELLRALLQSGAPAVPQLLHMPDFEGLYPVHLAVRARSPECLDLLVDSGAEVEATERQGGRTALHLATEMEELGLVTHLVTKLRANVNARTFAGNTPLHLAAGLGYPTLTRLLLKAGADIHAENEEPLCPLPSPPTSDSDSDSEGPEKDTRSSFRGHTPLDLTCSTKVKTLLLNAAQNTMEPPLTPPSPAGPGLSLGDTALQNLEQLLDGPEAQGSWAELAERLGLRSLVDTYRQTTSPSGSLLRSYELAGGDLAGLLEALSDMGLEEGVRLLRGPETRDKLPSTAEVKEDSAYGSQSVEQEAEKLGPPPEPPGGLCHGHPQPQVH

- binding [3]: binds
B3: FLAG-NMI (protein, UniProt Q13287 1-307)
chain: T1 sequence

- binding [2]: binds
B4: c-Rel (protein, UniProt Q04864 1-619)
chain: MASGAYNPYIEIIEQPRQRGMRFRYKCEGRSAGSIPGEHSTDNNRTYPSIQIMNYYGKGKVRITLVTKNDPYKPHPHDLVGKDCRDGYYEAEFGQERRPLFFQNLGIRCVKKKEVKEAIITRIKAGINPFNVPEKQLNDIEDCDLNVVRLCFQVFLPDEHGNLTTALPPVVSNPIYDNRAPNTAELRICRVNKNCGSVRGGDEIFLLCDKVQKDDIEVRFVLNDWEAKGIFSQADVHRQVAIVFKTPPYCKAITEPVTVKMQLRRPSDQEVSESMDFRYLPDEKDTYGNKAKKQKTTLLFQKLCQDHVETGFRHVDQDGLELLTSGDPPTLASQSAGITVNFPERPRPGLLGSIGEGRYFKKEPNLFSHDAVVREMPTGVSSQAESYYPSPGPISSGLSHHASMAPLPSSSWSSVAHPTPRSGNTNPLSSFSTRTLPSNSQGIPPFLRIPVGNDLNASNACIYNNADDIVGMEASSMPSADLYGISDPNMLSNCSVNMMTTSSDSMGETDNPRLLSMNLENPSCNSVLDPRDLRQLHQMSSSSMSAGANSNTTVFVSQSDAFEGSDFSCADNSMINESGPSNSTNPNSHGFVQDSQYSGIGSMQNEQLSDSFPYEFFQV
